According to US20230174507A1, “IMIDAZOLE 3-OXIDE DERIVATIVE BASED ACSS2 INHIBITORS AND METHODS OF USE THEREOF” (METABOMED LTD., priority 2020, published 2023):
The match of structure and compound is tentative.

Protein sequences, listed by entry. Tags and fused reporters are not part of them. Residues count along the entry.
UniProt Q9NR19, whole entry: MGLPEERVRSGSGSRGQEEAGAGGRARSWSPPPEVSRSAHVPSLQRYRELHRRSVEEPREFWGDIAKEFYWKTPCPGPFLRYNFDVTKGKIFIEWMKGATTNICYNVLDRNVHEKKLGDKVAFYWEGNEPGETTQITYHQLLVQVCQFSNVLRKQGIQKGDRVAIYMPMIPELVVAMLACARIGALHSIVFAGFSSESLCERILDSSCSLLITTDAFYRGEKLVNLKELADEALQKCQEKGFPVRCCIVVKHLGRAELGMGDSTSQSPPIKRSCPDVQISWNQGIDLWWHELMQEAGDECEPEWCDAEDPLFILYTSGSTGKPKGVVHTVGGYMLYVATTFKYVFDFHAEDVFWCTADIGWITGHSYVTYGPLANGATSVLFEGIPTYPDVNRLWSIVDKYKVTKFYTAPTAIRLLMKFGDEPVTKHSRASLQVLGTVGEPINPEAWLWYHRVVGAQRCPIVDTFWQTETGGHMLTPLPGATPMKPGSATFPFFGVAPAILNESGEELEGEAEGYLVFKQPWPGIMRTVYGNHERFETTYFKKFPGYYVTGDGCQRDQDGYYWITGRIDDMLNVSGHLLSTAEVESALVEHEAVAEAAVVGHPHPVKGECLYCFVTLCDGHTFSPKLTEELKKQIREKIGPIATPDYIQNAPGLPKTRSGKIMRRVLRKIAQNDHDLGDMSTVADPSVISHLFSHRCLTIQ
UniProt Q9NUB1, 38-689 limits assumed: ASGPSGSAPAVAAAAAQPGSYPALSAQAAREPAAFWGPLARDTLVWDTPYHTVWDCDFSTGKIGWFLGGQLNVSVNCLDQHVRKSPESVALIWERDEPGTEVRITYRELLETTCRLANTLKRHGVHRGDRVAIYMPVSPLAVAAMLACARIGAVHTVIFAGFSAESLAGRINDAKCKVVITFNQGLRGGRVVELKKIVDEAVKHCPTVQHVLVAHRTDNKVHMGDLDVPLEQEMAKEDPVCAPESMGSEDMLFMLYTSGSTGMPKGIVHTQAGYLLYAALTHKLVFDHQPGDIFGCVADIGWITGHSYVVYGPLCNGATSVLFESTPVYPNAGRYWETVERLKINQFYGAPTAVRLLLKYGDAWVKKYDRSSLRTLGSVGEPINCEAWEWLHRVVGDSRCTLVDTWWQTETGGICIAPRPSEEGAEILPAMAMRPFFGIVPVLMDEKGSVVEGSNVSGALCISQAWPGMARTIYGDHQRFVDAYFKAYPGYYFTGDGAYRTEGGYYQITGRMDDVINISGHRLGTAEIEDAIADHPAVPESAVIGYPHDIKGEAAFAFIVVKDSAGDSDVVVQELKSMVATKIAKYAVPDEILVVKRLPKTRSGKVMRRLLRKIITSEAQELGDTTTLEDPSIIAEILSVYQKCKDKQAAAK

Experiments:
[1] = target: human ACSS2 protein (Homo sapiens, UniProt Q9NR19); assay: ACSS2 cell-free activity assay (pyrophosphatase-coupled, Biomol green); conditions: read-out: ACSS2 Biochemical IC50; 10 nM human ACSS2, 90 minutes at 37 C, absorbance at 620 nm
Experimental: ACSS2 Cell-Free Activity Assay (Cell-Free IC50)
(§1) The assay is based on a coupling reaction with Pyrophosphatase: ACSS2 is converting ATP+CoA+Acetate=>AMP+pyrophosphate+Acetyl-CoA (Ac-CoA). Pyrophosphatase converts pyrophosphate, a product of the ACSS2 reaction, to phosphate which can be detected by measuring the absorbance at 620 nm after incubation with the Biomol green reagent (Enzo life Science, BML-AK111).
(§2) Cell Free IC50 Determination:
(§3) 10 nM of human ACSS2 protein (OriGene Technologies, Inc) was incubated for 90 minutes at 37 C with various compounds' concentrations in a reaction containing 50 mM Hepes pH 7.5, 10 mM DTT, 90 mM KCl, 0.006% Tween-20, 0.1 mg/ml BSA, 2 mM MgCl2, 10 μM CoA, 5 mM NaAc, 300 μM ATP and 0.5 U/ml Pyrophosphatase (Sigma). At the end of the reaction, Biomol Green was added for 30 minutes at RT and the activity was measured by reading the absorbance at 620 nm. IC50 values were calculated using non-linear regression curve fit with 0% and 100% constrains (CDD Vault, Collaborative Drug Discovery, Inc.).

[2] = target: human ACSS1 protein (Homo sapiens, UniProt Q9NUB1); assay: ACSS1 cell-free activity assay (pyrophosphatase-coupled, Biomol green); conditions: 5 nM human ACSS1, 30 minutes at room temperature, absorbance at 620 nm
Experimental: ACSS1 Cell-Free Activity Assay (Cell-Free IC50)
as §1, with “ACSS1” for “ACSS2”
as §2
as §3, with “5 nM” for “10 nM”, “human ACSS1” for “human ACSS2”, “protein (MyBioSource)” for “protein (OriGene Technologies, Inc)”, “for 30” for “for 90”, “at room temperature” for “at 37 C”, “MgCl2, 15” for “MgCl2, 10”

Row | SMILES | IC50 [1] [nM] | ACSS1 Biochemical IC50 (nM) [2]
1 | CCCc1cc(C)c(-c2cc(-c3[nH]c(C)c(C(=O)Nc4cccc(C(F)(F)CC)c4)[n+]3[O-])ccc2OC)c(C)c1 | > 30 | Inactive
2 | CCC(F)(F)c1cccc(NC(=O)c2c(C)[nH]c(-c3ccc(OC)c(C4C(C)CCCC4C)c3)[n+]2[O-])c1 (stereo not shown) | 1 to 30 | Inactive
